Experimental data as given in patent US4540682A, “Pharmaceutical peptides, preparation, use and intermediates” (Burroughs Wellcome Co., priority 1983, dated 1985).
At least one peptide structure holds a part that was inferred or is arguable (an end, a ring closure or a residue). Where a SMILES comes first, the peptide text is derived from it. [ ]: non-standard residue; d: D form. NEtPhe(4-NO2) = CCN[C@@H](Cc1ccc([N+](=O)[O-])cc1)C(=O)O

Assays:
Format in all cases: in vivo
female CD1 mice [1] = test: Irritant-induced writhing test, acetic acid
Male mice (CFLP strain) = test: Hotplate test; conditions: for (A) Hotplate ED50: subcutaneous, test repeated 15 mins. after treatment, as free peptide where appropriate, NE = no effect
Source text: (§1) (1) Both the hotplate test (Woolfe and MacDonald, J. Pharmacol. Exp. Ther. 80: 300, 1944) and the irritant-induced writhing (stretch) test (Vander Wende and Margolin, Fed. Proc. 15: 494, 1956) are standard in the art for the investigation of analgesic activity. Whereas it is believed that the pain in the latter can be ameliorated either centrally or peripherally, it is thought that that induced in the hotplate test is affected only at the central level.
Male mice (CFLP strain, Hacking and Churchill) were individually placed in a copper-bottomed perspex box suspended in a water bath at 55° C. and observed for signs of discomfort such as shaking or licking the paws, the reaction time (up to a maximum of 30 secs.) being recorded. Groups of five animals then received either a test compound or saline vehicle (0.85%) control by subcutaneous injection, the test being repeated at 15 mins. after treatment. The ED50 figures for the test compounds were calculated from the number of animals having a posttreatment reaction time which was twice the pretreatment figure.

Female Cobs Wistar rats = test: Antidiarrhoeal activity, castor oil; conditions: oral, mg. of free peptide/kg. bodyweight
female CD1 mice [2] = test: Irritant-induced writhing test, phenylbenzoquinone (PBQ); conditions: for (B) Writhing PBQ ED50 p.o.: *test compound administered 30 min. prior to PBQ; for (B) Writhing PBQ ED50: subcutaneous 15 mins. prior to PBQ
Source text: as §1
(ii) Phenylbenzoquinone (PBQ). This test was carried out in a parallel manner to that employing acetic acid, except that the period over which the writhing/stretching movements were counted began 10 mins. after administration of the PBQ irritant, the latter being given at a dosage of 2.5 mg/kg and in a dose volume of 10 ml/kg. The ED50 figures for the test compounds were calculated, using linear regression analysis, as the dose in the presence of which only half the number of writhes/stretches was induced compared with the controls.

male TFW mice = test: Antagonism by quaternary opioid (N-methylnalorphine) in acetic acid writhing; conditions: for Dose ratio (a):(b): dose for equiactive antinociceptive effect in presence vs absence of N-methylnalorphine; for (C) Writhing ED50, Saline control (b): saline i.p. 20 mins. before test compound s.c., acetic acid after further 30 mins.
guinea pigs = test: Antitussive activity, citric acid aerosol cough; conditions: subcutaneous 30 minutes before 30% citric acid aerosol; coughs reduced by 50%
[3] = *test compound administered 30 min. prior to acetic acid
[4] = subcutaneous 15 mins. prior to acetic acid
[5] = subcutaneous, *test compound administered 30 min. prior to acetic acid

| SMILES | (B) Writhing Acetic acid ED50 p.o. (female CD1 mice [1]; [3]) [mg/kg] | (B) Writhing Acetic acid ED50 (female CD1 mice [1]; [4]) [mg/kg] | (A) Hotplate ED50 (Male mice (CFLP strain)) | Antidiarrhoeal ED50, 1.0 hrs. post castor oil (Female Cobs Wistar rats) [mg/kg] | Antidiarrhoeal ED50, 1.5 hrs post castor oil (Female Cobs Wistar rats) [mg/kg] | Antidiarrhoeal ED50, 2.0 hrs post castor oil (Female Cobs Wistar rats) [mg/kg] | (B) Writhing PBQ ED50 p.o. (female CD1 mice [2]) [mg/kg] | (B) Writhing PBQ ED50 (female CD1 mice [2]) [mg/kg] | Dose ratio (a):(b) (male TFW mice) | (C) Writhing ED50, Saline control (b) (male TFW mice) [mg/kg] | (D) Antitussive ED50 (guinea pigs) [mg/kg] | (A) Hotplate ED50 p.o. (Male mice (CFLP strain); p.o., **test repeated at 30 min. after treatment) [mg/kg] | Antidiarrhoeal ED50, 2.5 hrs post castor oil (Female Cobs Wistar rats) [mg/kg] | (B) Writhing Acetic acid ED50 (female CD1 mice [1]; [5]) [mg/kg] |
| --- | --- | --- | --- | --- | --- | --- | --- | --- | --- | --- | --- | --- | --- | --- |
| CCN(CCc1ccc([N+](=O)[O-])cc1)C(=O)CNC(=O)[C@@H](CCCNC(=N)N)NC(=O)[C@@H](N)Cc1ccc(O)cc1 [Ex. 1] | 30.6 | 14.0 | NE @ 100 | 8.5 | 30.3 | 40.5 | 43.5 | 6.2 | 4.5 | 2.8 | 3.0 |  |  |  |
| CCN(C(=O)CNC(=O)[C@@H](CCCNC(=N)N)NC(=O)[C@@H](N)Cc1ccc(O)cc1)[C@@H](Cc1ccc([N+](=O)[O-])cc1)C(N)=O [Ex. 3, H.Tyr.D-Arg.Gly.Et Phe(4NO2).NH2.diacetate] (H-Y[dR]G[NEtPhe(4-NO2)]-NH2) | 0.9 | 0.03 | 1.0 mg/kg |  | 0.11 | 0.31 | 14.0 | 0.02 | 3.4 | 0.03 | 0.001 | 159.9 | 0.46 |  |
| CCN(C(=O)CNC(=O)[C@@H](CCCNC(=N)N)NC(=O)[C@H](Cc1ccc(O)cc1)NC(=N)N)[C@@H](Cc1ccc([N+](=O)[O-])cc1)C(N)=O [Ex. 4, N-Amidino-Tyr.D-Arg.Gly.Et Phe(4NO2).NH2,diacetate] |  |  | 1.5 mg/kg |  |  |  | 1.9 | 0.008 | 5.1 | 0.001 | 0.01 |  |  | 0.009 |
| CCN(C(=O)CNC(=O)[C@@H](CCCNC(=N)N)NC(=O)[C@H](Cc1ccc(O)cc1)NC(=N)N)[C@@H](Cc1ccc(F)cc1)C(N)=O [Ex. 33] |  |  | 1.5 mg/kg | 0.02 | 0.03 | 0.02 | 25.6 | 0.08 | 6.5 | 0.002 | 0.004 |  | 0.05 | 0.008 |
